Measurements reported in US20250292865A1, “DETERMINING BIOLOGICAL PARAMETERS OF A CELL” (THE UNIVERSITY OF BATH, priority 2022, published 2025).
At least one structure is not confirmed: it was looked up by name or label, or the drawing left a doubt.

Amino acid sequences for entries named in this document (tags omitted). A change or cut given only in a name is not applied to a line headed by its entry.
UniProt Q12791: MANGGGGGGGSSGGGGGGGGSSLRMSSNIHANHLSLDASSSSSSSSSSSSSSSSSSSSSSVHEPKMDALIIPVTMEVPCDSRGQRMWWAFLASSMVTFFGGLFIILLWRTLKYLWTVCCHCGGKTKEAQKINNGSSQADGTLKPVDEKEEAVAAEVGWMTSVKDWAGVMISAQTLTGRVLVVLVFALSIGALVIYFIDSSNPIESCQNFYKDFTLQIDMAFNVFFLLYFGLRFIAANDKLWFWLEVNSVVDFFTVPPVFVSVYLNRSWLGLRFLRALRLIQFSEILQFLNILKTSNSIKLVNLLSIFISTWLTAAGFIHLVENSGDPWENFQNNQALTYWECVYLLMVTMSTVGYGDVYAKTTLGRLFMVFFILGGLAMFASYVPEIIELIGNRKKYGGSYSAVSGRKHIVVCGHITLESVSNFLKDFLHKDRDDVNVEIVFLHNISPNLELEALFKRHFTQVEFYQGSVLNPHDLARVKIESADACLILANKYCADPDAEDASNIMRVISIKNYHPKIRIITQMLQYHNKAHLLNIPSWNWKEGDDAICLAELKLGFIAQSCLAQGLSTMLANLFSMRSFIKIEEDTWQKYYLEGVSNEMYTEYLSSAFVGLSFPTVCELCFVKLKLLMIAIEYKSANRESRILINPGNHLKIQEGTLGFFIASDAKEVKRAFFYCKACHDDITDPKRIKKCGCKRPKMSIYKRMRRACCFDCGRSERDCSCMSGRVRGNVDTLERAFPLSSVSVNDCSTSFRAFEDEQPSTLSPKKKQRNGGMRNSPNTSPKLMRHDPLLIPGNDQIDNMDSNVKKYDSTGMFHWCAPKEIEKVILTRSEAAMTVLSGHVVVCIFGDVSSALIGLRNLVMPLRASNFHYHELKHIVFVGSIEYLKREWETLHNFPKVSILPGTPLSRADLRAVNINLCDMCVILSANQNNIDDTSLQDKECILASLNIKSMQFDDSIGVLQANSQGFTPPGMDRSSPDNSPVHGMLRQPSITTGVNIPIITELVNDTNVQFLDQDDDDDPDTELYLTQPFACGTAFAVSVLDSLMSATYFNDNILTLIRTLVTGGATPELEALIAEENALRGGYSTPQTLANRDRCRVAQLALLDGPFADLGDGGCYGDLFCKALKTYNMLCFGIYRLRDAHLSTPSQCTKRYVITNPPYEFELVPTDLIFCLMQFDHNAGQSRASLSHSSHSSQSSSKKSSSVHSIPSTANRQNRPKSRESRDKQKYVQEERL

Tests used:
Type in all cases: cell-based, rodent
BK ion channel = molecular target: T1, BK ion channel (Homo sapiens, UniProt Q12791); experiment: Data assimilation of CA1 neuron current clamp recordings: predicted charge through BK channel before and after drug; conditions: 150 nM apamin, 2000 ms prediction window, FIG. 13A
T1 construct: endogenous in cells; host or cells: hippocampal CA1 neuron

K ion channel = experiment: Data assimilation of CA1 neuron current clamp recordings: predicted charge through K channel before and after drug; conditions: 150 nM apamin, 2000 ms prediction window, FIG. 13A
SK ion channel = experiment: Data assimilation of CA1 neuron current clamp recordings: predicted charge through SK channel before and after drug
NaT ion channel = experiment: Data assimilation of CA1 neuron current clamp recordings: predicted charge through NaT channel before and after drug; conditions: 150 nM apamin, 2000 ms prediction window, FIG. 13A
Ca ion channel = experiment: Data assimilation of CA1 neuron current clamp recordings: predicted charge through Ca channel before and after drug; conditions: 150 nM apamin, 2000 ms prediction window, FIG. 13A
A-type K+ ion channel = experiment: Data assimilation of CA1 neuron current clamp recordings: predicted charge through A-type K+ channel before and after drug; conditions: 150 nM apamin, 2000 ms prediction window, FIG. 13A

CC(C)C[C@@H]1NC(=O)[C@H](C)NC(=O)[C@H]([C@@H](C)O)NC(=O)[C@H](CCC(=O)O)NC(=O)[C@@H]2CCCN2C(=O)[C@H](C)NC(=O)[C@H](CCCCN)NC(=O)[C@@H]2CSSC[C@@H](C(=O)N[C@@H](CCC(N)=O)C(=O)N[C@@H](CCC(N)=O)C(=O)N[C@@H](Cc3cnc[nH]3)C(N)=O)NC(=O)[C@H](CCCNC(=N)N)NC(=O)[C@H](CCCNC(=N)N)NC(=O)[C@H](C)NC(=O)[C@H](CSSC[C@H](N)C(=O)N[C@@H](CC(N)=O)C(=O)N2)NC1=O [Apamin]
Effect on total predicted charge (spike normalised), pre- vs post-drug (BK ion channel): does not have a visible effect
Effect on total predicted charge (spike normalised), pre- vs post-drug (K ion channel): does not have a visible effect
Effect on total predicted charge (spike normalised), pre- vs post-drug (SK ion channel; 150 nM apamin, SK ion channel, 2000 ms prediction window, FIG. 13A, 13D): does have a noticeable effect
MEAN PREDICTED INHIBITION (Results) (SK ion channel; 150 nM applied, SK current, CA1 neuron, mean): 74.0%
MEDIAN PREDICTED INHIBITION (Results) (SK ion channel; 150 nM applied, SK current, CA1 neuron, median): 100%
Effect on total predicted charge (spike normalised), pre- vs post-drug (NaT ion channel): does not have a visible effect
Effect on total predicted charge (spike normalised), pre- vs post-drug (Ca ion channel): does not have a visible effect
Effect on total predicted charge (spike normalised), pre- vs post-drug (A-type K+ ion channel): does not have a visible effect
